In PMC3814572, “Identification of Novel Compounds Inhibiting Chikungunya Virus-Induced Cell Death by High Throughput Screening of a Kinase Inhibitor Library” (PLoS Neglected Tropical Diseases, 2013):

Experiment: Counter-screening for resazurin fluorescence (compounds in culture medium without cells)
Details: 12 hours

Structure (SMILES): COc1ccc(-c2coc3c(C(=O)NC(C)C)cccc23)c(C)c1 [CND0415]
- RFU (Mean ± SEM) (1.5 µM): 123414 ± 429 RFU
- RFU (Mean ± SEM) (3.1 µM): 124287 ± 99 RFU
- RFU (Mean ± SEM) (6.3 µM): 124545 ± 453 RFU
- RFU (Mean ± SEM) (12.5 µM): 124241 ± 566 RFU
- RFU (Mean ± SEM) (25.0 µM): 124969 ± 805 RFU
- RFU (Mean ± SEM) (50.0 µM): 123928 ± 552 RFU

Structure (SMILES): COc1ccc(-c2ccc(C(=O)Nc3ccc(C(C)C)cc3)c3occc23)c(C)c1 [CND0364]
- RFU (Mean ± SEM) (1.5 µM): 126001 ± 1098 RFU
- RFU (Mean ± SEM) (3.1 µM): 125687 ± 1255 RFU
- RFU (Mean ± SEM) (6.3 µM): 125566 ± 922 RFU
- RFU (Mean ± SEM) (12.5 µM): 146299 ± 19909 RFU
- RFU (Mean ± SEM) (25.0 µM): 126875 ± 548 RFU
- RFU (Mean ± SEM) (50.0 µM): 127260 ± 1785 RFU

Structure (SMILES): COc1ccc(-c2coc3c(C(=O)Nc4cccnc4)cccc23)c(C)c1 [CND0366]
- RFU (Mean ± SEM) (1.5 µM): 124331 ± 405 RFU
- RFU (Mean ± SEM) (3.1 µM): 124434 ± 115 RFU
- RFU (Mean ± SEM) (6.3 µM): 126123 ± 307 RFU
- RFU (Mean ± SEM) (12.5 µM): 126522 ± 346 RFU
- RFU (Mean ± SEM) (25.0 µM): 127193 ± 177 RFU
- RFU (Mean ± SEM) (50.0 µM): 128162 ± 70 RFU

Structure (SMILES): COc1cccc(Nc2cc3c(cn2)cc(-c2cccc(C(F)(F)F)c2)n3C)c1 [CND0545]
- RFU (Mean ± SEM) (1.5 µM): 123282 ± 359 RFU
- RFU (Mean ± SEM) (3.1 µM): 124100 ± 341 RFU
- RFU (Mean ± SEM) (6.3 µM): 124272 ± 340 RFU
- RFU (Mean ± SEM) (12.5 µM): 124622 ± 203 RFU
- RFU (Mean ± SEM) (25.0 µM): 124325 ± 663 RFU
- RFU (Mean ± SEM) (50.0 µM): 123847 ± 427 RFU

Structure (SMILES): CC(C)c1ccc(NC(=O)c2csc(C(O)C(C)C)n2)cc1 (stereo not drawn) [CND3514]
- RFU (Mean ± SEM) (1.5 µM): 123639 ± 696 RFU
- RFU (Mean ± SEM) (3.1 µM): 123322 ± 336 RFU
- RFU (Mean ± SEM) (6.3 µM): 122856 ± 122 RFU
- RFU (Mean ± SEM) (12.5 µM): 124101 ± 904 RFU
- RFU (Mean ± SEM) (25.0 µM): 124121 ± 800 RFU
- RFU (Mean ± SEM) (50.0 µM): 123902 ± 509 RFU

Structure (SMILES): COc1ccc(-c2ccc(C(=O)NC(C)C)c3occc23)c(C)c1 [CND0335]
- RFU (Mean ± SEM) (1.5 µM): 132660 ± 2366 RFU
- RFU (Mean ± SEM) (3.1 µM): 132843 ± 3615 RFU
- RFU (Mean ± SEM) (6.3 µM): 131901 ± 2890 RFU
- RFU (Mean ± SEM) (12.5 µM): 132612 ± 1892 RFU
- RFU (Mean ± SEM) (25.0 µM): 134083 ± 2617 RFU
- RFU (Mean ± SEM) (50.0 µM): 134468 ± 2782 RFU
